Data reported in PMC3853316.
No constants are given. Whether binding was seen depends on the method and setting. Some results given as binding are weak or reduced against the parent protein; the word gives no strength. Where a sequence is shown, tags or fusion partners need not be part of it.

Molecular target: recombinant full-length human MFAP4 without a His6- and V5-tag (human) (UniProt P55083)
Assay: SEC; analytical Superose 6 10/300 GL, TBS, 10 mM EDTA, 0.05% emulphogen, 0.4 ml/min; unpurified samples (CHO culture supernatant, normal human serum, MFAP4-depleted serum reconstituted with recMFAP4); 1-ml fractions analysed by MFAP4 ELISA

B1: recombinant full-length human MFAP4 without a His6- and V5-tag (protein, UniProt P55083 22-255)
chain: VSGIRGDALERFCLQQPLDCDDIYAQGYQSDGVYLIYPSGPSVPVPVFCDMTTEGGKWTVFQKRFNGSVSFFRGWNDYKLGFGRADGEYWLGLQNMHLLTLKQKYELRVDLEDFENNTAYAKYADFSISPNAVSAEEDGYTLFVAGFEDGGAGDSLSYHSGQKFSTFDRDQDLFVQNCAALSSGAFWFRSCHFANLNGFYLGGSHLSYANGINWAQWKGFYYSLKRTEMKIRRA
B1 was tested, and the binding was “binds”.
